Binding data for eight molecules are collected here from paper PMC6601512.

Assay [1] has as its target T1, 3xFlag::mCherry::IFE-3 (C. elegans) (UniProt O61955).
T1 sequence: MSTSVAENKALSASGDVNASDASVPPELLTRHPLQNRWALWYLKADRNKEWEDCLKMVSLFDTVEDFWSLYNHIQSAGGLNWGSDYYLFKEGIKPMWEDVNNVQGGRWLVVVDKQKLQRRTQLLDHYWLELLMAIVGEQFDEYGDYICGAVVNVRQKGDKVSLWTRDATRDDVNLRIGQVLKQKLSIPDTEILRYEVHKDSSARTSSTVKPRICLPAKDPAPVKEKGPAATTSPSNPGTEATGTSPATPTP
Description: affinity purification with mass spectrometry; RFP-Trap (mCherry) or GFP-Trap immunoprecipitation of tagged transgenic proteins from nongravid adult worm extracts, 2 h at 4°C, 150 mM NaCl, pH 7.5; nontransgenic wild type as control; PID-3 also with RNase treatment and in the absence of PID-1.

The target in assay [2] is T2, TOFU-6::GFP::HA (C. elegans) (UniProt Q09293).
T2 sequence: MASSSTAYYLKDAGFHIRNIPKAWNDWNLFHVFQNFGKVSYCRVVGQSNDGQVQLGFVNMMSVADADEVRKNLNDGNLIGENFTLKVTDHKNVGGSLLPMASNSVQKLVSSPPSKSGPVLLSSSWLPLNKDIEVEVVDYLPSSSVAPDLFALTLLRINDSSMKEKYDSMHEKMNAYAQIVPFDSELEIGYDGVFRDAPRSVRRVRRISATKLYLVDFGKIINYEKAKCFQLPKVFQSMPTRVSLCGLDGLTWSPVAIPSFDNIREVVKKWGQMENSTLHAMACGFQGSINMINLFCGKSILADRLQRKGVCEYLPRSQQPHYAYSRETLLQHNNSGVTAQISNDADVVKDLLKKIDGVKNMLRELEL
The assay is described as above.

The target of the assay “PID-1 (piRNA-induced …)” is T3, PID-1 (piRNA-induced silencing-defective 1) (C. elegans (endogenous in nongravid adult worms)), Q19541.
T3 chain: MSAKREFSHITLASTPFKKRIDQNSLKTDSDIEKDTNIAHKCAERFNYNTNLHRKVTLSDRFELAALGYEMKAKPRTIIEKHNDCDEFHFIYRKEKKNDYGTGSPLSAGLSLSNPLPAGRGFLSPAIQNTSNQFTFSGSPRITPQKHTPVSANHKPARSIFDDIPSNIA
As to the kind of experiment: affinity purification with mass spectrometry; immunoprecipitation with PID-1-specific antibodies from nongravid adult worm extracts, label-free quantification, quadruplicates; pid-1 loss-of-function strains as control. The following applies: remark: other sources report otherwise.

The target in assay [3] is T4, PID-3::mCherry::Myc (C. elegans) (UniProt O76616).
T4 sequence: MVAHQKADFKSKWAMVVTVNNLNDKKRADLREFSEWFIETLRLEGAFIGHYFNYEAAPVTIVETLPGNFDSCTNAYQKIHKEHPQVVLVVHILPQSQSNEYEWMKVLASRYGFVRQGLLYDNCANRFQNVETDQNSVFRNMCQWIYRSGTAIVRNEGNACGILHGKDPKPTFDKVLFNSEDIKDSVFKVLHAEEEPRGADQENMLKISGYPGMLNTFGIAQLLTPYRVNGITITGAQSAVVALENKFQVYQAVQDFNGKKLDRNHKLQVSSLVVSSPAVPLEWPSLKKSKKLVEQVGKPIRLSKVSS
As to the kind of experiment: affinity purification with mass spectrometry; RFP-Trap (mCherry) or GFP-Trap immunoprecipitation of tagged transgenic proteins from nongravid adult worm extracts, 2 h at 4°C, 150 mM NaCl, pH 7.5; nontransgenic wild type as control; PID-3 also with RNase treatment and in the absence of PID-1.

For assay [4], the target named is T5, ERH-2::GFP::OLLAS (C. elegans) (UniProt Q20057).
T5 sequence: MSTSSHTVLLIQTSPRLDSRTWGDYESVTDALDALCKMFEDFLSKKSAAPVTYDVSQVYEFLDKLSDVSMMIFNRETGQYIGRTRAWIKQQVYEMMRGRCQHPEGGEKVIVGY
Described as above.

Assay [5] concerns the target T6, PID-1 (piRNA-induced silencing-defective 1) (C. elegans (endogenous in nongravid adult worms)) (UniProt Q19541).
T6 sequence: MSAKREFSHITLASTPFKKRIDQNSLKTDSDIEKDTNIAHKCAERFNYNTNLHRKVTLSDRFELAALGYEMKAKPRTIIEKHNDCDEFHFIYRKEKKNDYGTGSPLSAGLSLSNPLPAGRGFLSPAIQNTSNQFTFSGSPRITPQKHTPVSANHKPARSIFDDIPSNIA
As to the kind of experiment: affinity purification with mass spectrometry; immunoprecipitation with PID-1-specific antibodies from nongravid adult worm extracts, label-free quantification, quadruplicates; pid-1 loss-of-function strains as control.

No constants are given. Whether binding was seen depends on the method and setting. In cells and extracts the contact can be indirect. A yes stands for co-enrichment or nearness to the bait. Other partners may have been found. A no says only that the protein was not detected with the bait. For part of these data: Where a sequence is shown, tags or fusion partners need not be part of it.

B1: TOFU-6 (protein, UniProt Q09293 1-367)
chain: MASSSTAYYLKDAGFHIRNIPKAWNDWNLFHVFQNFGKVSYCRVVGQSNDGQVQLGFVNMMSVADADEVRKNLNDGNLIGENFTLKVTDHKNVGGSLLPMASNSVQKLVSSPPSKSGPVLLSSSWLPLNKDIEVEVVDYLPSSSVAPDLFALTLLRINDSSMKEKYDSMHEKMNAYAQIVPFDSELEIGYDGVFRDAPRSVRRVRRISATKLYLVDFGKIINYEKAKCFQLPKVFQSMPTRVSLCGLDGLTWSPVAIPSFDNIREVVKKWGQMENSTLHAMACGFQGSINMINLFCGKSILADRLQRKGVCEYLPRSQQPHYAYSRETLLQHNNSGVTAQISNDADVVKDLLKKIDGVKNMLRELEL
Take B1: the binding result in assay [1] is reported as “binds”.

B2: IFE-3 (protein, UniProt O61955 1-251)
chain: MSTSVAENKALSASGDVNASDASVPPELLTRHPLQNRWALWYLKADRNKEWEDCLKMVSLFDTVEDFWSLYNHIQSAGGLNWGSDYYLFKEGIKPMWEDVNNVQGGRWLVVVDKQKLQRRTQLLDHYWLELLMAIVGEQFDEYGDYICGAVVNVRQKGDKVSLWTRDATRDDVNLRIGQVLKQKLSIPDTEILRYEVHKDSSARTSSTVKPRICLPAKDPAPVKEKGPAATTSPSNPGTEATGTSPATPTP
Take B2: in assay [2], the binding result is given as “binds”.

B3: ERH-1, Q22640 1-103 (protein)
chain: MSHTILLLQPTDNIESRSWSDYENTTECLEGICRVYEEYLKKKVPAQNEITYDISHLFEFIDDLKDLSMLVLDNTTYTYVPHNKQYVKESIYKLMNNRLNNQH
For the molecule B3, the binding entry in the assay with PID-1 (piRNA-induced …) is reported as “no binding”.

B4: ERH-1 (protein, UniProt Q22640 1-103)
chain: MSHTILLLQPTDNIESRSWSDYENTTECLEGICRVYEEYLKKKVPAQNEITYDISHLFEFIDDLKDLSMLVLDNTTYTYVPHNKQYVKESIYKLMNNRLNNQH
On to B4, for which the binding result in assay [1], in assay [3], in assay [4] and in assay [2] was “no binding” throughout.

B5: TOST-1 (twenty-one U pathway antagonist) (protein, UniProt Q18490 1-142)
chain: MTTAIQYQVIPLADREHSNKVASILENKYKTATNKRITLNERFGVLEKGYTIQATEPETVKNDSDVFFVVHDRNLNSKKEFVENYLAKNPIVNSPEKVFEEEDKENAPTKKAVLKPSSTDEKKLTSSDIYIQEITRSILQSV
In the case of B5, the binding result in assay [5] was “no binding”; in assay [4], “binds”.

B6: ERH-2 (protein, UniProt Q20057 1-113)
chain: MSTSSHTVLLIQTSPRLDSRTWGDYESVTDALDALCKMFEDFLSKKSAAPVTYDVSQVYEFLDKLSDVSMMIFNRETGQYIGRTRAWIKQQVYEMMRGRCQHPEGGEKVIVGY
With B6, the binding result in assay [5] and in assay [3] was “binds” throughout.

B7: PID-3 (protein, UniProt O76616 1-307)
chain: MVAHQKADFKSKWAMVVTVNNLNDKKRADLREFSEWFIETLRLEGAFIGHYFNYEAAPVTIVETLPGNFDSCTNAYQKIHKEHPQVVLVVHILPQSQSNEYEWMKVLASRYGFVRQGLLYDNCANRFQNVETDQNSVFRNMCQWIYRSGTAIVRNEGNACGILHGKDPKPTFDKVLFNSEDIKDSVFKVLHAEEEPRGADQENMLKISGYPGMLNTFGIAQLLTPYRVNGITITGAQSAVVALENKFQVYQAVQDFNGKKLDRNHKLQVSSLVVSSPAVPLEWPSLKKSKKLVEQVGKPIRLSKVSS
Consider B7, for which the binding result in assay [4] was “binds”.

B8: IFE-1 (protein, UniProt O45551 1-212)
chain: MTETEQTTAPIYPLKRNWTWWYLNDERNKSWEDRLKKVYTFNTVSEFWALYDAIRPPSGLNALCDYNVFRDDIQPMWEVPENSNGGRWLIVIDKGKTPEMVDAIWLEILMALVGEQFGKDMESICGLVCNVRGKGSKISVWTKDCNDDETNMRIGVVLKEKLMAASKDHSKPLFDVIRYEDHESCQKKTSSVVKAKLSLHSSDAPVAEKSAV
As for B8, the binding entry in assay [1], in assay [3] and in assay [2] was “binds” in each case.
